# PubChem BioAssay AID652243 – Drosophila RNAi Screening Center – 2013
# Test: 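Fly genes required for human androgen receptor driven transcription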 (primary screen)
# System: Drosophila S2R+ cells
# Knock-down reagent: long dsRNA against Drosophila genes
# Timing: 72 h (48 h, then 24 h hormone)
# Challenge: synthetic androgen R1881 at 10 nM for 24 h
# Detection: 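Per-well raw luminescence of the androgen-driven firefly reporter and of the Renilla control, two replicates each, without normalisation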
# Direction: firefly reporter light: higher = more light from androgen-responsive reporter; Renilla control light: higher = more constitutive control signal (cell number, transfection)
# Active means: 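Hit when the log firefly-to-Renilla ratio dropped or increased by a fixed fold versus the mean of GFP or LacZ controls across duplicate plates; lowering cut given as 1.5 and as 3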
# Calls: active = hit: reporter lowered or raised; inactive = no hit
# In all, the deposit lists about 24,000 reagents; below is an unselected part of those with a known target gene and a result. Of all reagents, 246 (1%) were called active. 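Plates not normalised; calls are printed but the firefly/Renilla ratio behind them is not deposited; fold cut for lowering reported inconsistently.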 Raw values are not corrected between plates. The numbers tell different reagents against one gene apart. A plus sign joins genes that one reagent is predicted to hit. No sequences are given here. Not stated in the record: the amount of reagent.
gene,dsRNA no.,"firefly reporter light, replicate 1","firefly reporter light, replicate 2","Renilla control light, replicate 1","Renilla control light, replicate 2",activity call
Ice1,1,2.98e5,1.17e5,1.54e6,9.22e5,inactive
Ice1,2,7.87e5,8.09e5,1.36e6,1.66e6,inactive
CG10332 (retired record) + IM18,1,4.02e5,4.22e5,2.59e6,1.46e6,inactive
mthl12,1,63889,1.46e5,1.37e5,1.69e5,inactive
CG1965,1,4.72e5,3.54e5,3.83e6,3.20e6,inactive
CG1965,2,4.17e5,4.13e5,1.68e6,3.06e6,inactive
AdipoR,1,71660,1.04e5,8.50e5,8.68e5,inactive
Pof,1,7.51e5,6.19e5,1.73e6,1.26e6,inactive
CG31974,1,88479,92148,5.54e5,4.61e5,inactive
CG10307,1,1.06e6,1.33e6,2.54e6,2.58e6,inactive
CG10307,2,2.43e5,2.40e5,7.25e5,6.68e5,inactive
CG8028,1,92513,56397,2.64e5,2.14e5,inactive
Spec2 (retired record),1,42402,81352,1.46e6,1.21e6,inactive
Spec2 (retired record),2,6.64e5,1.05e6,1.14e6,1.49e6,inactive
sphinx2,1,5.85e5,5.35e5,2.22e6,2.47e6,inactive
sphinx2,2,8.10e5,8.00e5,6.02e5,7.86e5,inactive
SMC3,1,2.87e5,2.42e5,3.23e6,2.47e6,inactive
CG13712,1,1.82e5,1.54e5,2.16e6,2.81e6,inactive
Gle1,1,5.91e5,5.47e5,7.37e5,6.25e5,inactive
Gle1,2,5.67e5,4.44e5,1.17e6,1.15e6,inactive
viaf,1,9.71e5,8.31e5,1.71e6,1.73e6,inactive
CG31213,1,2.78e5,3.20e5,2.74e6,3.18e6,inactive
CG31213,2,2.86e5,2.74e5,3.60e6,4.02e6,inactive
CG7945,1,1.08e6,9.12e5,1.57e6,1.80e6,inactive

3 entries from above, arranged by “firefly reporter light, replicate 2”, highest first:
gene,dsRNA no.,"firefly reporter light, replicate 1","firefly reporter light, replicate 2","Renilla control light, replicate 1","Renilla control light, replicate 2",activity call
CG10307,1,1.06e6,1.33e6,2.54e6,2.58e6,inactive
Pof,1,7.51e5,6.19e5,1.73e6,1.26e6,inactive
CG31974,1,88479,92148,5.54e5,4.61e5,inactive
